Assay [1] deals with T1, PKCzeta (human (endogenous in HUVECs)) (UniProt Q05513).
T1 sequence: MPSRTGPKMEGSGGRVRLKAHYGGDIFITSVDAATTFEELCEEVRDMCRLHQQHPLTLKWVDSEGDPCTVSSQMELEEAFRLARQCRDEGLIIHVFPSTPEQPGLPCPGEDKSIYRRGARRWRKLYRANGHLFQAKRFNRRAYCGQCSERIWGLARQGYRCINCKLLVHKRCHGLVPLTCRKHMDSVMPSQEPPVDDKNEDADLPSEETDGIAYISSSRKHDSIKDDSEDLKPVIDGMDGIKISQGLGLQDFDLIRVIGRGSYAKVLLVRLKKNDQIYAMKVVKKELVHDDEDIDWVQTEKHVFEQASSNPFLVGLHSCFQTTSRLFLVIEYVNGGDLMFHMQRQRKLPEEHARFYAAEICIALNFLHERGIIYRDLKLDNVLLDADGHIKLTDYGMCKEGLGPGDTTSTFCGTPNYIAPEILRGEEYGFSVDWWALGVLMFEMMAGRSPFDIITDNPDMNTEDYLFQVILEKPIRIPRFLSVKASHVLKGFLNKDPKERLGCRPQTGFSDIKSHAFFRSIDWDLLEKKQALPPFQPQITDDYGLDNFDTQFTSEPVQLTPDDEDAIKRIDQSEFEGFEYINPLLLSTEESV
Nature of the assay: co-IP; 2.5 ug PKCzeta antibody added to 500 ug HUVEC lysate with protein A+G magnetic beads, 2 h; western blot for Akt; cells treated with ox-LDL, with or without ZIP (1 uM, 40 min) and Cav1 shRNA. In general terms: Immunoblotting shows a protein as a band on a membrane.

Assay [2] addresses T2, GST-tagged PKCzeta protein (UniProt Q05513).
T2 sequence: T1 sequence
In words: pull-down; GST Pull-down Kit; purified GST-tagged PKCzeta as bait on the gel (3 h), HUVEC extracts bound for 4 h, 4 washes, western blot for Akt; cells treated with ox-LDL, with or without ZIP (1 uM, 40 min) and Cav1 shRNA; only the target purified.

No constants are given. Whether binding was seen depends on the method and setting. In cells and extracts the contact can be indirect. Binding can be weak; no strength is given. For some assays here: Tags and fused reporters may be left off the sequences shown.

Drawing on paper PMC11438709, this text covers binding for one substance.

Consider Akt (human (endogenous in HUVECs)), for which the binding result in assay [1] and in assay [2] was “binds” throughout.
